The exact form of at least one protein or probe is not confirmed.
System: BstYI restriction endonuclease (Bacillus stearothermophilus Y406)
Assay: enzyme reaction in vitro
Conditions: N6-methyladenine in GATC (Dam); Dam methylation does not confer resistance to BstYI digestion; purified recombinant protein; only the motif is given

GATC (double strand) [Dam-methylated GATC DNA]
activity on this sequence: active

Source: patent US6403354
